In this assay the target is GABA-A receptor; anion channel. Briefly: Binding affinity for umolar GABA-A central benzodiazepine receptor. The class given is protein-complex assay, Mus musculus.

The structures appear in SMILES notation.

Molecule `CN1C(=O)CN=C(c2ccccc2)c2cc(Cl)ccc21` [DIAZEPAM] yielded a Ki of 85 µM.
